Source: patent US20030186419A1
Results are given in words; binding and its absence hold for the method and conditions named. Some entries that bind do so weakly or less than the wild type.

Protein sequences, listed by entry. Tags and fused reporters are not part of them. Lines headed by an entry give the natural chain unless they say otherwise; changes in a name come on top. Chains listed by the source or under a name are the forms on record and can include a tag or linker. Residues count along the entry.
UniProt P11226, residues 21-248: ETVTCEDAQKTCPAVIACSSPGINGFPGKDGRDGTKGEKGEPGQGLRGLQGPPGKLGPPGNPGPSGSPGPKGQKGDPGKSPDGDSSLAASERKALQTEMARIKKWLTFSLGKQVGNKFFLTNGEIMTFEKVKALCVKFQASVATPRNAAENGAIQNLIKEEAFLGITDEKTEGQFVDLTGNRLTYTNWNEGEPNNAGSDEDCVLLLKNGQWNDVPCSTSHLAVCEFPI
UniProt P48740, residues 20-699: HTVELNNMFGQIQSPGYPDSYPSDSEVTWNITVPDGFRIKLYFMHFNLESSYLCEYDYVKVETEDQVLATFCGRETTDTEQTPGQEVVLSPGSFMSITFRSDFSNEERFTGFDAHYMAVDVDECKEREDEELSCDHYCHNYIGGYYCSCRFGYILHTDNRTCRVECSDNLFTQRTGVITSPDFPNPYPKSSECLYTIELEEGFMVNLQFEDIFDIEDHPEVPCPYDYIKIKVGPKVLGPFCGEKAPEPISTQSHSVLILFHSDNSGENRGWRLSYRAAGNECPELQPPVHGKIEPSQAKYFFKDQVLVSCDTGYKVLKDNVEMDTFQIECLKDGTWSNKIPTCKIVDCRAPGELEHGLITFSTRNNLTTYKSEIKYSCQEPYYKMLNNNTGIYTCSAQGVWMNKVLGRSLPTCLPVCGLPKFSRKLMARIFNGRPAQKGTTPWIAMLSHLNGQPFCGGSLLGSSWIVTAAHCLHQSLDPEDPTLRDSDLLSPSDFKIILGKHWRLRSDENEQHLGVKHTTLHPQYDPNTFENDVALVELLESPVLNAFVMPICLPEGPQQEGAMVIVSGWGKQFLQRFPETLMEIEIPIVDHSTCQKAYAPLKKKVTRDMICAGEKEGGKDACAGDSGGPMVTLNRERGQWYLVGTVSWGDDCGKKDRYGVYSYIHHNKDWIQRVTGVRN
MASP-2 (MBL-associated serine protease 2) (O00187, residues 16-686): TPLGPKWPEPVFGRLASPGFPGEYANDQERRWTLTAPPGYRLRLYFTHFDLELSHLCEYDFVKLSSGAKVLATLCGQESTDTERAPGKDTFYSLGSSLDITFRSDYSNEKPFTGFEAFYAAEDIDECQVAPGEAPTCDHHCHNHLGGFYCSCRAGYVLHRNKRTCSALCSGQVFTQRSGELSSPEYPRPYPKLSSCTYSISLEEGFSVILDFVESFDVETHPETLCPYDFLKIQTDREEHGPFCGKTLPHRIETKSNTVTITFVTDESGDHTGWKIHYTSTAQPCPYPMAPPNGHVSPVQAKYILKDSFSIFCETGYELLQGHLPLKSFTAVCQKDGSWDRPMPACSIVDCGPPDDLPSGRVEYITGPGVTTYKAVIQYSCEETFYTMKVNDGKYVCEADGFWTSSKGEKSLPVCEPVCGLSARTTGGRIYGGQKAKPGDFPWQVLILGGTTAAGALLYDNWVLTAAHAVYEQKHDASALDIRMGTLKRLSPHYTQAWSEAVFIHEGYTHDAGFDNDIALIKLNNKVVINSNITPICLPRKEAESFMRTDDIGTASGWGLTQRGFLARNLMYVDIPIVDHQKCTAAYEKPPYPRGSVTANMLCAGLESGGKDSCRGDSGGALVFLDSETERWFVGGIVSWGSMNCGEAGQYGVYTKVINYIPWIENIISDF
MAp19 (O00187, form named): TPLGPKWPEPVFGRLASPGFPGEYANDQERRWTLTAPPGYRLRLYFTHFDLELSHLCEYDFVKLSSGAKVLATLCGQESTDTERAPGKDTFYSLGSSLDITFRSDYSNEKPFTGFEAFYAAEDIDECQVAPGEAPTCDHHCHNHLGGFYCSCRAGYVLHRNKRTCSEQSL

Key:
[1] = target: MBL-I, the smallest MBL oligomer (approximate Mr 275K) (human) (UniProt P11226); test: fractionation of MBL complexes, Western blots
[2] = target: MBL-I, the smallest MBL oligomer (approximate Mr 275K) (human) (UniProt P11226); test: fractionation of MBL complexes, summary of results
[3] = target: MBL-I, the smallest MBL oligomer (approximate Mr 275K) (human) (UniProt P11226); test: ion-exchange chromatography and sucrose gradient centrifugation of MBL complexes, Western blots of fractions
[4] = target: MBL-II, MBL oligomer (approximate Mr 345K) (human) (UniProt P11226); test: fractionation of MBL complexes, Western blots
[5] = target: MBL-II, MBL oligomer (approximate Mr 345K) (human) (UniProt P11226); test: fractionation of MBL complexes, summary of results
[6] = target: MBL-II, MBL oligomer (approximate Mr 345K) (human) (UniProt P11226); test: ion-exchange chromatography and sucrose gradient centrifugation of MBL complexes, Western blots of fractions

Measured: binding

MASP-1 (MBL-associated serine protease 1) (from UniProt P48740 20-699) (enzyme)
binds: [1] | [2] | [3]

MASP-2 (MBL-associated serine protease 2) (from UniProt O00187 16-686) (enzyme)
binds: [4] | [5] | [6]

MAp19 (from UniProt O00187 16-185)
binds: [1] | [2] | [3]
